From patent US8747811B2, “Perylenequinone derivatives and uses thereof” (Quest Pharmatech, Inc., priority 2005, dated 2014)
For at least one compound, name, drawing or mass did not settle the structure. Some entries share one result that the patent states for a list of compounds.

Experiments:
[1] = UV-visible absorption spectra in DMSO; assay type: physicochemical
Text: The absorption spectra of compounds (4) and (5) recorded in DMSO are shown in FIG. 1 along with the parent compound (2). Based on the study of absorption spectra of hypocrellin B (2) (Diwu et al. Sinica Sol. B 18, 1993, 131), the shorter wavelength absorption bands are assigned to the π-π* transition, and the absorption bands at the longer wavelength is the relation to […] charge transfer (ICT) which may take on some active role in the photodynamic activity of the molecule. From FIG. 1, the absorption at the longer wavelengths of compounds (4) and (5) has enhanced, as compared to the parent hypocrellin B (2). The maximum absorption of compounds (4) and (5) is around 600-700 nm in DMSO which helps in tissue penetration, while the parent compound hypocrellin (2) has maximum absorption at 580 nm in DMSO. When an electron donating group like 3-dimethylaminopropylamine is introduced in the quinonoid molecule, its interaction with the adjacent carbonyl group enhances the red shift in the absorption spectra, thereby leading to an extended red shift spectral region (photodynamic window) which is important for PDT.

[2] = system: pre-cancerous skin lesions or small tumors; test: PDT of animals with pre-cancerous skin lesions or small tumors; assay type: in vivo
EMT-6 cells = test: Dark toxicity, clonogenic assay in EMT-6 cells; assay type: cell-based, mouse; conditions: highest dose of 20 μM, no light
Description: EMT-6 cells in log phase growth were plated onto 35 mm dishes 24 hours prior to experimentation. Growth media was removed and replaced with media containing compounds (4) and (5) at the doses (0, 2.5 μM, 5 μM and 20 μM). The plates were then kept at 37° C. for 3 hours in the dark and then the cells were washed 2 times in PBS then trypsinized and re-plated at 200 cells/60 mm dish in normal RPMI growth media. The cells were allowed to grow for 7 days and then stained with Methylene Blue and the surviving colonies counted.
EMT-6 cells in log phase growth were plated onto 35 mm tissue culture dishes 24 hours prior to experimentation. Growth media was removed and replaced with media containing compounds (4) or (5) at the above doses—0, 2.5 μM, 5 μM and 20 μM (Initially, the drugs were dissolved in pure DMSO @ a concentration of 2 mM). They were diluted down to the appropriate concentrations in RPMI growth media. The plates were then kept at 37° C. for 3 hours in the dark and then the cells were washed 2 times in PBS and finally had 2 ml of RPMI added to each dish. Then, the dark toxicity samples were kept covered at room temperature for the equivalent time taken for light treatment of the other samples. […] The cells were allowed to grow for 7 days and then stained with Methylene Blue and the surviving colonies counted.

Compound	maximum absorption [1]	Response Rate ([2]; 0.5%, One Light Treatment)	Response Rate ([2]; 0.5%, Two Light Treatments)	Response Rate ([2]; 1%, One Light Treatment)	Response Rate ([2]; 1%, Two Light Treatments)	toxicity without light delivery (dark toxicity) (EMT-6 cells)
COc1c(O)c2c(=O)cc(OC)c3c4c(OC)cc(=O)c5c(O)c(NCCCN(C)C)c6c(c(c1C(C(C)=O)C(C)=C6)c23)c54 (stereo not shown) [Compound 4, 2-(N,N-dimethylaminopropyl)-amino-15-acetyl-3,10-dihydroxy-6,7,11-trimethoxy-14-methyl-15-H-cyclohepta(ghi)perylene-4,9-dione]	600-700 nm	1/3 (33%)	6/6 (100%)	9/12 (75%)	8/10 (80%)	
COc1c(O)c2c(=O)cc(OC)c3c4c(OC)cc(=O)c5c6c(c7c(c(c1C(C(C)=O)C(C)=C7)c23)c54)NC1CCCCC1N6 (stereo not shown) [Compound 5, (2,3b)-Octahydroquinoxalin-yl-hypocrellin B derivative]	600-700 nm					5 to 10%
